This passage reports binding results from article PMC11538862.

Amino acid sequences for entries named in this document (tags omitted).
UniProt P60335: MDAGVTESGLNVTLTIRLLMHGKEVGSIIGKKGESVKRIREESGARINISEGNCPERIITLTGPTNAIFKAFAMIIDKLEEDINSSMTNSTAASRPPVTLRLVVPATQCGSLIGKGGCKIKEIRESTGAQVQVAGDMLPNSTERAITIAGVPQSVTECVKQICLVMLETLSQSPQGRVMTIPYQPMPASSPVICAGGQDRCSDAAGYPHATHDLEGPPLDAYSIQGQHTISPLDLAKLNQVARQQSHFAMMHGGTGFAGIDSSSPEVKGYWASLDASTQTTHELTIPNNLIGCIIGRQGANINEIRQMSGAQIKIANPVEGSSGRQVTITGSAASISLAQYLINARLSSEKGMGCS
UniProt O35286: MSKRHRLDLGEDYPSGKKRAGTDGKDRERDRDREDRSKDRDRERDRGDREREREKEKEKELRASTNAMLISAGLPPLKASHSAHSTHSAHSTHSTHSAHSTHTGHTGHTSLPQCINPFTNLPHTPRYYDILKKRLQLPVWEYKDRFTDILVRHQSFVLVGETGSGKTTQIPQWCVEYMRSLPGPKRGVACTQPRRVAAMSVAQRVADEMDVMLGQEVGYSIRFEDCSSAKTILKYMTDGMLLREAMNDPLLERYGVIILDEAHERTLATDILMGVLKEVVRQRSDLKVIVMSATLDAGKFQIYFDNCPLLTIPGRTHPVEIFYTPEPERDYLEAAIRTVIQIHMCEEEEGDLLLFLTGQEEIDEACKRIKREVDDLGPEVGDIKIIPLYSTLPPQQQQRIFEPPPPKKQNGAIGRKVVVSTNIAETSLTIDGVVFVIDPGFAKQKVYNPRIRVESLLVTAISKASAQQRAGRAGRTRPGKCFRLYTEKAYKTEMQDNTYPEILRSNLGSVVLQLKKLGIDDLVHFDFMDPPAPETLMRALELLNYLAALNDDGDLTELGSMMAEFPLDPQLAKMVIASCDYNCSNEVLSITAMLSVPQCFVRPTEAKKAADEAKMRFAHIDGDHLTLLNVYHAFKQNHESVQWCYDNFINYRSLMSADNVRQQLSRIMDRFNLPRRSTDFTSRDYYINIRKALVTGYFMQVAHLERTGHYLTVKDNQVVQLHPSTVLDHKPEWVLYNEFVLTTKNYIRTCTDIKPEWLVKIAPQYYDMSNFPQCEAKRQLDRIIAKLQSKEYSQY
UniProt O70133: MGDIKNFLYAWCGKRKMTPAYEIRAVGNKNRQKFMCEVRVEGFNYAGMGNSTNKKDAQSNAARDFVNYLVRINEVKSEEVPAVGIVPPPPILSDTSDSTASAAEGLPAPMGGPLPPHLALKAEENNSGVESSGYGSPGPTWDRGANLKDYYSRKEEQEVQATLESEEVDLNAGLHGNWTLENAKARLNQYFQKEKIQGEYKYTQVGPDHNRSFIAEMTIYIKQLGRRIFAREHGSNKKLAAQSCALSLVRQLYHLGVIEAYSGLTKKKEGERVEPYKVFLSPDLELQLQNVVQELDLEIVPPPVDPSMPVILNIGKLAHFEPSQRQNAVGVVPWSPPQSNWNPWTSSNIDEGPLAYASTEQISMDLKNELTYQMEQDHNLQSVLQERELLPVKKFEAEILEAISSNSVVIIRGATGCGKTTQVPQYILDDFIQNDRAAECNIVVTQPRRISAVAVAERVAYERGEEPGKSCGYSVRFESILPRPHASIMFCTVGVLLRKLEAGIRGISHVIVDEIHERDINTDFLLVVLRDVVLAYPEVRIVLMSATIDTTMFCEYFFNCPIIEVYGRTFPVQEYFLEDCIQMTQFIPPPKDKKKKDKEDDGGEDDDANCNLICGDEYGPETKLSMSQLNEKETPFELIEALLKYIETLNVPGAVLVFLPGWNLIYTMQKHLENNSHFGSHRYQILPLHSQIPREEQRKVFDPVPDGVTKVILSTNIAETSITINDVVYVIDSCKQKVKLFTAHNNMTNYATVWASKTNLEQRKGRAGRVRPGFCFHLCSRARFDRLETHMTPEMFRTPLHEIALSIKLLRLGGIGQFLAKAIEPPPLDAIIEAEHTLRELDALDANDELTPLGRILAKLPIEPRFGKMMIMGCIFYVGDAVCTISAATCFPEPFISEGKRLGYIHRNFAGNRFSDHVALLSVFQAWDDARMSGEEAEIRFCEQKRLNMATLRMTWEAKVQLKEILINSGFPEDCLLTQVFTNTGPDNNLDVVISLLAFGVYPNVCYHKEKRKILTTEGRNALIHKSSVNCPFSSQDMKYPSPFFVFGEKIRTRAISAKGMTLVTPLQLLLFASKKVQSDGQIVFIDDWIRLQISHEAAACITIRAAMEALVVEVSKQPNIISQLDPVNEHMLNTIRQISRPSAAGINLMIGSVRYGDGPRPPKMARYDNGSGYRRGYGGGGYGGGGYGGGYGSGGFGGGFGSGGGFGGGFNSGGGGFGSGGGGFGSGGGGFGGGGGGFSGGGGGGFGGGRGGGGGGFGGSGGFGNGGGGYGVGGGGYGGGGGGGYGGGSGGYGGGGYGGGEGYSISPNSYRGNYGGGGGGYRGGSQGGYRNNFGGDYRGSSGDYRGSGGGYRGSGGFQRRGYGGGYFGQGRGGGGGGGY

Results are given in words; binding and its absence hold for the method and conditions named. Binding seen in cells or lysates may run through a third protein. Here binding means that the protein was enriched with, or labelled near, the bait; the list need not be complete.

Sequences and labels used below:
B1: DDX21, mouse (protein, UniProt Q9JIK5 1-851)
chain: MPGKLRSGAKLGSDGAEESMETLPKPSEKKTRKEKTKSKTEEATEGMEEAVSSKAKKTNKKGPSEDDVDPPKSRKAKKQEEEPQDDTASTSKTSKKKKEPLEKQADSETKEIITEEPSEEEADMPKPKKMKKGKEANGDAGEKSPKLKNGLSQPSEEEADIPKPKKMKKGKEANGDAGEKSPKLKNGLSQPSEEEVDIPKPKKMKKGKEASGDAGEKSPRLKDGLSQPSEPKSNSSDAPGEESSSETEKEIPVEQKEGAFSNFPISEETVKLLKARGVNFLFPIQAKTFHHVYSGKDLIAQARTGTGKTFSFAIPLIEKLQGGLQERKRGRAPQVLVLAPTRELANQVSKDFSDITKKLSVACFYGGTPYGGQIERMRSGIDILVGTPGRIKDHLQNGKLDLTKLKHVVLDEVDQMLDMGFADQVEEILCVAYKKDSEDNPQTLLFSATCPHWVFNVAKKYMKSTYEQVDLIGKKTQKAAITVEHLAIKCHWTERAAVIGDVIRVYSGHQGRTIIFCETKKDAQELSQNTCIKQDAQSLHGDIPQKQREITLKGFRNGNFGVLVATNVAARGLDIPEVDLVVQSCPPKDVESYIHRSGRTGRAGRTGVCICFYQNKEEYQLAQVEQKAGIKFKRIGVPSATEIIKASSKDAIRLLDSVPPTAISHFKQSAEKLIEEKGAVEALAAALAHISGATSVDQRSLINSQAGFVTMILRCSIEMPNISYAWKELKEQLGESIDAKVKGMVFLKGKLGVCFDVRTEAVTEIQEKWHDSRRWQLTVATEQPELEGPPDGYRGRMGQRDGSRGAFRGQRGGSRNFRGQGQRGGSRNFRGQRPGGGNRGQKRSFSKAFGQ
B2: DHX36, mouse (protein, UniProt Q8VHK9 1-1001)
chain: MSYDYHQSWSRDGGPRGSGQGSSGGGGGGSRGSGGGGGGRGGRGRHPAHLKGREIGLWYAKKQTQKNKEAERQERAVVHMDERREEQIVQLLNSVQAKTDKDSEAQISWFAPEDHGYGTEVSSEKKINSEKKLDNQEKKLLNQEKKTFRITDKSYIDRDSEYLLQENEPNLSLDQHLLEDLQRKKTDPRYIEMQRFRKKLPSYGMQKELVNLINNHQVTVISGETGCGKTTQVTQFILDNYIERGKGSACRIVCTQPRRISAISVAERVATERAESCGNGNSTGYQIRLQSRLPRKQGSILYCTTGIILQWLQSDSRLSSVSHIVLDEIHERNLQSDVLMTVIKDLLHFRSDLKVILMSATLNAEKFSEYFGNCPMIHIPGFTFPVVEYLLEDIIEKIRYVPDQKEHRSQFKRGFMQGHVNRQEKEEKEAIYKERWPAYIKELRTRYSASTVDVLQMMDDDKVDLNLIAALIRYIVLEEEDGAILVFLPGWDNISTLHDLLMSQVMFKSDKFLIIPLHSLMPTVNQTQVFKKTPPGVRKIVIATNIAETSITIDDVVYVIDGGKIKETHFDTQNNISTMSAEWVSKANAKQRKGRAGRVQPGHCYHLYNGLRASLLDDYQLPEILRTPLEELCLQIKILRLGGIAYFLSRLMDPPSNEAVVLSIKHLMELSALDKQEELTPLGVHLARLPVEPHIGKMILFGALFCCLDPVLTIAASLSFKDPFVIPLGKEKIADARRKELAKETRSDHLTVVNAFEGWEEAKRRGFRYEKDYCWEYFLSSNTLQMLHNMKGQFAEHLLGAGFVSSRSPKDPKANINSDNEKIIKAVICAGLYPKVAKIRLNLGKKRKMVKVHTKSDGLVSIHPKSVNVEQTDFHYNWLIYHLKMRTSSIYLYDCTEVSPYCLLFFGGDISIQKDKDQEIIAVDEWIVFQSPERIAHLVKGLRKELDSLLQEKIESPHPVDWDDTKSRDCAVLSAILDLIKTQEKATPRNLPPRSQDGYYS

The assay concerns the target V5-tagged PCBP1 (UniProt P60335). Kind of assay: affinity purification with mass spectrometry; V5 immunoprecipitation from NMuMG shCTR and shPCBP1 cells transiently expressing V5-PCBP1, against V5-control; gel fragments analysed by mass spectrometry.
As for “DHX15, mouse (from UniProt O35286 1-795)”, the binding entry is “binds”.

Consider “RNA Helicase A (DHX9), mouse (from UniProt O70133 1-1380)”, for which the binding result is “binds”.

For B1, the binding result is recorded as “binds”.

With B2, the binding result is on record as “binds”.
